Measured values reported in PubChem BioAssay AID248 (DTP/NCI, 2004).
The list does not hold the whole screen: it gathers tests that were run many times, whatever their T/C, doses with no T/C, and many T/C values between a quarter and a half above the control. Other doses and runs of a compound stand elsewhere. T/C: endpoint of the treated group in % of that of the vehicle group. Some entries give survivors of the animals treated and no T/C: the source files T/C as zero there, which appears to mark a toxic dose or a test without result, not a measured value. Some survivor counts are full or nearly so, which does not show that the dose was tolerated: the source hardly ever lists a survival T/C far under the control, and the zero likely stands for such cases as well. Survivors were counted at the toxicity check, usually on the fifth day, unless a day is given; later deaths do not show. Schedule codes are those of the source, read here as Q, the interval in days (D) or hours (H), X, the number of doses. Some molecules as drawn cover several salts, stereoisomers or complexes of the source; a dose is that of the sample tested.

Test system: L1210 leukemia ip in BDF1 mice, survival T/C
Test: NCI In Vivo Anticancer Drug Screen. Data for tumor model L1210 Leukemia (intraperitoneal) in B6D2F1 (BDF1) mice
Settings: T/C endpoint: mean survival time, higher T/C = longer survival
[1] = dose: 100.0 mg/kg/injection, schedule: Q01DX009 (ip), vehicle: Klucel (hydroxypropylcellulose) (HPC)
[2] = dose: 200.0 mg/kg/injection, schedule: Q01DX009 (ip), vehicle: Klucel (hydroxypropylcellulose) (HPC)
[3] = dose: 400.0 mg/kg/injection, schedule: Q01DX009 (ip), vehicle: Klucel (hydroxypropylcellulose) (HPC)
[4] = dose: 400.0 mg/kg/injection, schedule: Q04DX003 (ip), vehicle: Klucel (hydroxypropylcellulose) (HPC)
[5] = dose: 50.0 mg/kg/injection, schedule: Q01DX001 (ip), vehicle: saline
[6] = dose: 100.0 mg/kg/injection, schedule: Q01DX001 (ip), vehicle: saline
[7] = dose: 200.0 mg/kg/injection, schedule: Q01DX001 (ip), vehicle: saline
[8] = dose: 400.0 mg/kg/injection, schedule: Q01DX001 (ip), vehicle: saline

With `CCCCCCCCCCCCC[n+]1cccc(C#N)c1` the survivor count (dose: 40.0 mg/kg/injection, schedule: Q01DX001 (ip), vehicle: saline) was 3 of 6, the survivor count (dose: 75.0 mg/kg/injection, schedule: Q01DX001 (ip), vehicle: acetone) was 0 of 6 and the survivor count (dose: 150.0 mg/kg/injection, schedule: Q01DX001 (ip), vehicle: acetone) was 0 of 6. The survivor count (dose: 300.0 mg/kg/injection, schedule: Q01DX001 (ip), vehicle: acetone) was 0 of 6.
For `NS(=O)(=O)c1ccc(N=Nc2ncc(CCNC3=CC(=O)C(=O)c4ccccc43)[nH]2)cc1`, the survivor count [1] was 3 of 3 and the survivor count [2] was 3 of 3.
With `CC(=O)Nc1ccc(Br)cc1` the survivor count (dose: 400.0 mg/kg/injection, schedule: Q01DX001 (ip), vehicle: carboxymethylcellulose (CMC)) was 4 of 4 and the survivor count [3] was 4 of 6.
In the case of `CCOC(=O)C(C(=O)OCC)C1c2ccccc2C(=NO)c2ccccc21` (stereo unspecified), the survivor count [4] is reported as 6 of 6.
In the case of `CC(=O)/C=C\c1ccc([N+](=O)[O-])o1`, the survivor count (dose: 400.0 mg/kg/injection, schedule: Q04DX002 (ip), vehicle: Klucel (hydroxypropylcellulose) (HPC)) is reported as 2 of 3.
For `O=NN(CC(F)(F)F)C(=O)NC1CCCCC1` (tested in a mixture with another compound), the survivor count (dose: 500.0 mg/kg/injection, schedule: Q01DX001 (ip), vehicle: other) was 3 of 6 and the survivor count (dose: 750.0 mg/kg/injection, schedule: Q01DX001 (ip), vehicle: other) was 0 of 6.
For `N#Cc1nc2c(nc1N)CCCCCCCCCC2`, the survivor count (dose: 200.0 mg/kg/injection, schedule: Q01DX001 (ip), vehicle: Klucel (hydroxypropylcellulose) (HPC)) was 3 of 3.
For `FC(F)(Cl)c1nc2nc(Cl)c(Cl)nc2[nH]1`, the survivor count (dose: 200.0 mg/kg/injection, schedule: Q01DX009 (ip), vehicle: other) was 1 of 6.
For `CCN(CC)CCCNc1c2ccc(Cl)cc2nc2ccc(OC)cc12`, the survivor count [5] was 2 of 4, the survivor count [6] was 0 of 4 and the survivor count [7] was 0 of 4. The survivor count [8] was 0 of 4.
For `CCCCCCCC[N+](C)(CCCCCCCC)CCCCCCCC`, the survivor count (dose: 0.39 mg/kg/injection, schedule: Q04DX003 (ip), vehicle: acetone) was 4 of 6, the survivor count (dose: 0.78 mg/kg/injection, schedule: Q04DX003 (ip), vehicle: acetone) was 1 of 6 and the survivor count (dose: 0.95 mg/kg/injection, schedule: Q01DX009 (ip), vehicle: saline) was 3 of 6. The survivor count (dose: 1.45 mg/kg/injection, schedule: Q01DX009 (ip), vehicle: saline) was 5 of 6, the survivor count (dose: 1.56 mg/kg/injection, schedule: Q01DX001 (ip), vehicle: acetone) was 1 of 6 and the survivor count (dose: 1.56 mg/kg/injection, schedule: Q01DX001 (ip), vehicle: saline) was 2 of 3. The survivor count (dose: 2.0 mg/kg/injection, schedule: Q01DX015 (ip), vehicle: saline) was 1 of 6, the survivor count (dose: 2.17 mg/kg/injection, schedule: Q01DX009 (ip), vehicle: saline) was 0 of 6 and the survivor count (dose: 3.12 mg/kg/injection, schedule: Q01DX001 (ip), vehicle: acetone) was 0 of 6. For the same compound, the survivor count (dose: 3.12 mg/kg/injection, schedule: Q01DX001 (ip), vehicle: saline) was 2 of 3, the survivor count (dose: 4.0 mg/kg/injection, schedule: Q01DX015 (ip), vehicle: saline) was 0 of 6 and the survivor count (dose: 6.25 mg/kg/injection, schedule: Q01DX001 (ip), vehicle: acetone) was 1 of 6. The survivor count (dose: 6.25 mg/kg/injection, schedule: Q01DX001 (ip), vehicle: saline with Tween-80) was 0 of 6, the survivor count (dose: 6.25 mg/kg/injection, schedule: Q01DX001 (ip), vehicle: saline) was 0 of 3 and the survivor count (dose: 12.5 mg/kg/injection, schedule: Q01DX001 (ip), vehicle: saline with Tween-80) was 0 of 6. For the same compound, the survivor count (dose: 12.5 mg/kg/injection, schedule: Q01DX001 (ip), vehicle: saline) was 0 of 6, the survivor count (dose: 25.0 mg/kg/injection, schedule: Q01DX001 (ip), vehicle: saline with Tween-80) was 0 of 6 and the survivor count (dose: 25.0 mg/kg/injection, schedule: Q01DX001 (ip), vehicle: saline) was 0 of 6. The survivor count [5] was 0 of 6, the survivor count (dose: 100.0 mg/kg/injection, schedule: Q01DX001 (ip), vehicle: saline with Tween-80) was 0 of 6 and the survivor count [6] was 0 of 6. For the same compound, the survivor count (dose: 200.0 mg/kg/injection, schedule: Q01DX001 (ip), vehicle: saline with Tween-80) was 0 of 6, the survivor count [7] was 0 of 6 and the survivor count (dose: 400.0 mg/kg/injection, schedule: Q01DX001 (ip), vehicle: saline with Tween-80) was 1 of 6. The survivor count [8] was 0 of 6.
In the case of `CCC(=O)N/N=C/C=N/NC(=O)c1ccncc1`, the survivor count [3] is reported as 6 of 6.
With `CC[N+](C)(CC)CCCNC(c1ccc(Cl)cc1)C(Cl)(Cl)Cl` (stereo unspecified) the survivor count (dose: 75.0 mg/kg/injection, schedule: Q01DX001 (ip), vehicle: saline) was 0 of 6, the survivor count (dose: 150.0 mg/kg/injection, schedule: Q01DX001 (ip), vehicle: saline) was 0 of 6 and the survivor count (dose: 300.0 mg/kg/injection, schedule: Q01DX001 (ip), vehicle: saline) was 0 of 6.
`CCCCCCC(C)NCC(O)COc1cccc(C)c1` (stereo unspecified) was tested, and the survivor count (dose: 50.0 mg/kg/injection, schedule: Q01DX009 (ip), vehicle: saline with Tween-80) was 3 of 3, the survivor count (dose: 100.0 mg/kg/injection, schedule: Q04DX002 (ip), vehicle: saline with Tween-80) was 3 of 3 and the survivor count (dose: 200.0 mg/kg/injection, schedule: Q04DX002 (ip), vehicle: saline with Tween-80) was 1 of 3. For the same compound, the survivor count (dose: 400.0 mg/kg/injection, schedule: Q04DX002 (ip), vehicle: saline with Tween-80) was 0 of 3.
In the case of `CC(=O)Oc1cccc(N(C)C)c1`, the survivor count (dose: 200.0 mg/kg/injection, schedule: Q01DX001 (ip), vehicle: acetone) is reported as 3 of 6 and the survivor count (dose: 400.0 mg/kg/injection, schedule: Q01DX001 (ip), vehicle: acetone) is reported as 0 of 6.
In the case of `C=C(Cl)CSCC`, the survivor count (dose: 200.0 mg/kg/injection, schedule: Q04DX003 (ip), vehicle: saline with Tween-80) is reported as 1 of 6 and the survivor count (dose: 400.0 mg/kg/injection, schedule: Q04DX003 (ip), vehicle: saline with Tween-80) is reported as 0 of 6.
`C#CCSC(=S)OCC` was tested, and the survivor count (dose: 400.0 mg/kg/injection, schedule: Q04DX003 (ip), vehicle: other) was 5 of 6.
With `Cc1ccc(S(=O)(=O)N2CCN(S(=O)(=O)c3ccc(C)c([N+](=O)[O-])c3)CC2)cc1[N+](=O)[O-]` the survivor count (dose: 100.0 mg/kg/injection, schedule: Q04DX003 (ip), vehicle: clinical formulation) was 10 of 10.
In the case of `Cc1c[n+]2ccc3ccccc3c2c2ccccc12`, the survivor count (dose: 10.0 mg/kg/injection, schedule: Q04DX003 (ip), vehicle: acetone) is reported as 3 of 6, the survivor count (dose: 11.0 mg/kg/injection, schedule: Q01DX009 (ip), vehicle: saline) is reported as 1 of 6 and the survivor count (dose: 16.5 mg/kg/injection, schedule: Q01DX009 (ip), vehicle: saline) is reported as 0 of 6. For the same compound, the survivor count (dose: 20.0 mg/kg/injection, schedule: Q01DX001 (ip), vehicle: acetone) was 0 of 6.
With `Cc1ccc2c3c1C(O)C(C(N)=O)C3CCS2` (stereo unspecified) the survivor count [6] was 4 of 4.
For `Cc1cccc(NC(=O)CCl)c1`, the survivor count (dose: 100.0 mg/kg/injection, schedule: Q04DX003 (ip), vehicle: Klucel (hydroxypropylcellulose) (HPC)) was 6 of 6, the survivor count [2] was 0 of 6 and the survivor count [3] was 0 of 6. For the same compound, the survivor count [4] was 6 of 6.
`Nc1nc(N)nc(Nc2ccc([As]=O)cc2)n1` (stereo unspecified) was tested, and the survivor count [1] was 5 of 6, the survivor count [2] was 6 of 6 and the survivor count [3] was 0 of 6.
With `CNCCOCc1ccccc1` the survivor count [8] was 0 of 4.
For `COC(=O)C(C)CN1CCCCC1` (stereo unspecified), the survivor count (dose: 400.0 mg/kg/injection, schedule: Q04DX003 (ip), vehicle: saline) was 0 of 6.
